Out of some 360,000 compounds screened, about 9,100 (2.5%) were called active. The shares of active, inactive and inconclusive entries below differ from those in the screen. Rule as the data show it: active = max response below about -50%; inconclusive = no clear call, values can overlap the other calls; inactive = above that.
These compounds were tested against D(3) dopamine receptor (Homo sapiens) (UniProt P35462) (assay: qHTS of D3 Dopamine Receptor Antagonist: qHTS). Conditions: D3R cells, DiscoveRx beta-arrestin luminescence, antagonist mode; active compounds read low.
How it was run: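 Cells plated overnight at 1500 cells/well, then exposed to library compounds with dopamine controls for 90 minutes at 37 degrees C. DiscoveRx reagent added for 30–60 minutes at room temperature; luminescence read, quantitative HTS format.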
% is scaled to controls: 0 for no effect and ±100 for the full control effect.

Chains of the proteins cited; added tags and fusions are not shown.
UniProt P35462, whole entry, looked up: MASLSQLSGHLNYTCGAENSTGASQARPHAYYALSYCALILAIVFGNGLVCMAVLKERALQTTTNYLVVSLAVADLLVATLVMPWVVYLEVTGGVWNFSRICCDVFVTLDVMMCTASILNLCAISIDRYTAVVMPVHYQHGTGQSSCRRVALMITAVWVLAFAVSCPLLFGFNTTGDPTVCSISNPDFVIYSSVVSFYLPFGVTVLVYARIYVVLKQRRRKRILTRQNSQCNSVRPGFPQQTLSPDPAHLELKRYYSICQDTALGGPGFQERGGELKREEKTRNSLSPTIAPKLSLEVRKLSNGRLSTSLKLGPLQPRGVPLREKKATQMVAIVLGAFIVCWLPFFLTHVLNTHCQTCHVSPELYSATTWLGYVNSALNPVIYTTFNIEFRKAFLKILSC

Max response, negative = inhibition, inconclusive:
O=C(NCc1cccc(Cl)c1)c1cnccn1 -39.6%, COc1ccc2sc(N(CCCN(C)C)C(=O)c3ccc(S(=O)(=O)N(C)C4CCCCC4)cc3)nc2c1 -38.9%, CCOc1ccc(CN2CCN(C3CCC3)CC2CCO)cc1 (stereo not given) -33.8%, O=C(CCN1CCN(S(=O)(=O)c2ccc(Cl)cc2)CC1)Nc1ccccc1F -31.5%, Cc1ccc(-c2nc3ccccc3o2)cc1NC(=S)NC(=O)c1cc2ccccc2o1 -34.3%, CSc1nnc(NC(=O)c2nc(S(=O)(=O)Cc3ccccc3)ncc2Cl)s1 -37.1%, CNS(=O)(=O)c1cccc(C(=O)OCC(=O)c2c(N)n(Cc3ccccc3)c(=O)n(C)c2=O)c1 -31.6%, Cc1ccc2[nH]c(=O)c(CNC(C)(C)C)cc2c1 -31.4%, Cc1cccc(-c2ccc3[nH]c4c(c3c2)CCN2C[C@H]3[C@H](C)ON(C)[C@H]3C[C@@H]42)c1 -32.6%, CN1CCC(N(C)S(=O)(=O)c2ccc(C(C)(C)C)cc2)CC1 -44.9%, CCOC(=O)Nc1ccc2c(COC(=O)CNS(=O)(=O)c3cccc(Br)c3)cc(=O)oc2c1 -33.1%, N#Cc1c(F)cccc1N1CCOCC1 -46.1%, CC(/C=N/NC(=O)c1ccccn1)=C\c1ccco1 -35.8%, Cc1cnc(C(=O)Nc2ccc(C)c(S(=O)(=O)N(C)C)c2)cn1 -46.9%, CCN(CC)Cc1c(O)ccc2occ(C(=O)c3ccc(OC)cc3)c12 -32.9%, CCOC(=O)C1(S(=O)(=O)c2ccccc2)CCN(Cc2ccc(Cl)cc2)CC1 -44.9%, CN(C)S(=O)(=O)c1cccc(C(=O)OCC(=O)Nc2sccc2C#N)c1 -40.5%, Cc1ccc(N2C(=O)C(Cl)=C(NCCO)C2=O)c(C)c1 -33.3%, O=C(Nc1ccc2c(c1)OCO2)C1CCN(Cc2cnn(-c3ccccc3)c2-n2cccc2)CC1 -47.2%, CN(C)N=C1c2cc(S(=O)(=O)N(C)C)ccc2-c2ccc(S(=O)(=O)N(C)C)cc21 -35.3%, Cc1ccc(C)c(OCCn2cc(C(=O)O)c3ccccc32)c1 -31.8%, CN(C)CCCOc1ccc2c(c1)Sc1ccccc1CC2=O -37.6%, CN(C)c1ccnc(-n2cccc2/C=N/OCc2cccc(F)c2)c1C#N -46.8%, Cn1cccc1C(=O)C(=O)Nc1ccccc1 -39.4%, O=C(O)/C=C/C(=O)N1CCN(c2ccc(F)cc2)CC1 -42.3%, Cc1ccc(S(=O)(=O)NCC2NCCc3ccccc32)cc1 (stereo not given) -40.6%, CC1=[N+]([O-])C(C)(C)CC(C)(C)c2ccccc21 -31.4%, COc1cc(NC(=O)c2cc([N+](=O)[O-])ccc2Br)ccc1NC(=O)c1ccco1 -31.8%, COc1ccc(CN2CCN(c3nc4ccccc4s3)CC2)cc1 -41.3%, Cc1nc2c(C)cccn2c1/C(O)=C1\C(=O)C(=O)N(CCN2CCOCC2)C1c1ccncc1 (stereo not given) -40.5%, COc1ccccc1N(CN1CCCC1=O)C(=O)c1ccccc1F -42.7%, COc1ccc(OCC(=O)OCC(=O)Nc2ccc(S(=O)(=O)N3CCCCC3)cc2)cc1 -41.9%, CC(C)(C)c1ccc(C(=O)NCC(=O)OCN2C(=O)c3ccccc3C2=O)cc1 -34.2%, Cc1ccc(N2CCN(CC(O)COc3cccc(C)c3)CC2)cc1 (stereo not given) -30.1%, C/C(CC1(O)C(=O)Nc2ccccc21)=N\O (stereo not given) -40.2%, COc1ccc(Cn2cc(F)c(=O)n(CCC(C)C)c2=O)cc1[N+](=O)[O-] -43.3%, CC1CC1c1ccc(/C=C(\C#N)C(=O)Nc2ccc(Cl)cc2)o1 (stereo not given) -47.6%, O=C1C(Cl)=C(NCCCN2CCOCC2)C(=O)c2ccccc21 -30.1%, COc1cc(C)c(NC(=S)Nc2ccc(Cl)c(Cl)c2)cc1OC -45.4%, O=C(COC(=O)c1ccccc1C(=O)c1ccc(Cl)c([N+](=O)[O-])c1)NC1CCCCCC1 -46.8%, O=C(CCN1C(=O)C2C3CCC(C3)C2C1=O)OCC(=O)c1cccc([N+](=O)[O-])c1 (stereo not given) -35.2%, CC1CCN(C(=O)c2ccc(SCc3ccccc3F)c([N+](=O)[O-])c2)CC1 -36.2%, CCc1nnc(NS(=O)(=O)c2ccc(N/C=C\C(=O)c3ccc4ccccc4c3)cc2)s1 -31.1%

Max response, negative = inhibition, active:
Cc1ccc(CN2CCN(/N=C/c3cc(Br)ccc3O)CC2)cc1 -87.1%, COc1cc2c(cc1OC)C1C/C(=N\O)C(CC(C)C)CN1CC2 (stereo not given) -58.1%, COCCN(CCOC)S(=O)(=O)c1ccc(C(=O)Nc2nnc(C3CC3)o2)cc1 -52.9%, COc1ccc(C(NC(=O)C2CCN(CCCOc3ccccc3)CC2)c2cccs2)cc1 (stereo not given) -74.8%, O=C(c1cc2ccccc2o1)N1CCN(Cc2ccc3c(c2)OCO3)CC1 -104%, COc1ccc(/C=C2/SC(=S)N(c3ccc(S(=O)(=O)Nc4nccs4)cc3)C2=O)cc1 -54.4%, CCN1CCN(CC(=O)N2N=CCC2c2ccccc2)CC1 (stereo not given) -50.6%, Cn1c(CNc2nc3ccccc3n2C)nc2ccccc21 -69.6%, Cc1cc(C(=O)NCCc2ccccc2)ccc1[N+](=O)[O-] -54.7%, Fc1ccc(CN2CCSCC2)cc1Br -61.3%, Cc1ccccc1C(=O)NC1CC2CCCC(C1)N2Cc1ccccc1 (stereo not given) -84.7%, O=C(CCN1CCCCC1)c1ccc2c(c1)OCO2 -65.1%, O=C(CNCc1ccccc1Cl)Nc1ccccc1N1CCCCC1 -60.2%, COCCCNC(=O)[C@H](Cc1ccccc1)NC(=O)CC[C@H]1O[C@@H](n2ccc(=O)[nH]c2=O)[C@H](O)[C@@H]1O -55.8%, COC(=O)c1ccc(/C=C(\C#N)C(=O)NC(C)c2ccccc2)cc1 (stereo not given) -55.5%, CCO[C@@H]1OC(C(=O)N2CCOCC2)=C[C@H](c2ccccc2)[C@H]1CCCO -64.5%, CCOC(=O)C(=Cc1ccc(-n2cncn2)cc1)C(=O)OCC -63.8%, O=C(CC(NS(=O)(=O)c1ccc(Cl)cc1)c1ccco1)N1CCc2ccccc21 (stereo not given) -69%

Max response, negative = inhibition, inactive:
CCN1CCN(c2cc(=O)n(Cc3ccc(F)cc3)c(=O)[nH]2)CC1 -11.6%, O=C(OCc1ccccc1)/C(=C/c1ccc(Cl)cc1)NC(=O)c1ccccc1Cl -5.39%, CCC(NC(=S)NCc1ccc(F)cc1)c1ccccc1 (stereo not given) -25.6%, Cn1c(=NN=Cc2ccccc2OCCO)sc2ccccc21 22.1%, COc1ccc(OC)c(N(CC(=O)Nc2cccnc2)S(=O)(=O)c2ccccc2)c1 23.4%, CC(=O)Nc1ccc(NC(=O)C2(C)Cc3c(-c4ccc5c(c4)OCO5)ccnc3O2)cc1 (stereo not given) 2.82%, O=C(N[C@H]1c2ccccc2C[C@H]1O)[C@H]1O[C@@H](n2ccc(=O)[nH]c2=O)[C@H](O)[C@@H]1O 10.4%, CSCCC(c1nc2ccccc2[nH]1)n1c(-c2ccc3ncccc3c2)nc2ccccc21 (stereo not given) -0.511%, COc1ccc(CC(NC(C)=O)C(=O)NC2CCN(c3nc(C)cc(C)c3C#N)CC2)cc1OC (stereo not given) 2.35%, COc1ccc(OC)c(C2=NS(=O)(=O)N(C)C(C(=O)Nc3cccc(C(C)=O)c3)=C2)c1 3.23%, CN1CCN(C2=Nc3c(Cl)cc(Cl)c4cccc2c34)CC1 -21.4%, CCC(C)NCC(=O)Nc1cc(S(=O)(=O)N(CC)c2ccccc2)ccc1Cl (stereo not given) 4.28%, O=C(CCS(=O)(=O)c1ccc(Cl)cc1)Nc1nc(-c2cccnc2)cs1 -1.55%, COCCNC(=O)CC(NS(=O)(=O)c1ccc(NC(C)=O)cc1)C(C)C (stereo not given) 0%, O=C(c1cc(-c2ccccc2Cl)nc2ccc(Br)cc12)N1CCN(c2ccccn2)CC1 84.5%, CCOc1ccc(NC(=O)C2CCCN(S(=O)(=O)c3cccc4nsnc34)C2)cc1 (stereo not given) -3.58%, CN1CCN(c2ccc(Cl)cc2NC(=O)c2cc(=O)[nH]c3ccccc23)CC1 4.74%, CC(C)NCC(O)COC1CCC(C(C)(C)C)CC1 (stereo not given) -23.6%, O=C(N/C(=C\c1ccc(Cl)cc1)C(=O)N1CCCCC1)c1ccco1 10.8%, COc1cccc(NC(=O)CN(C)C(=O)c2cc(-c3cccc(Br)c3)nc3ccccc23)c1 25.9%, C[C@]12c3[nH]c4cc(-c5ccco5)ccc4c3CCN1C(=O)[C@@H](CC(=O)NCCC1=CCCCC1)C[C@@H]2C(=O)N1CCOCC1 6.72%, COc1cccc(N/C(SCc2ccccc2C)=C(/C#N)C(=O)NCc2cccs2)c1 -9.31%, CCOC(=O)C1(Cc2ccccc2C)CCCN(C(=O)CN2CCCCC2=O)C1 (stereo not given) -21.1%, CC(=O)N1CC(c2ccccc2)C(c2ccc(Cl)cc2)=N1 (stereo not given) -21.3%

Reference: PubChem BioAssay AID652054 (National Center for Advancing Translational Sciences (NCATS), 2013)
